PubChem BioAssay AID1224826 – NIAID – 2016
Assay: 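Knock-downs that raise or lower Tnf reporter signal after endotoxin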 (primary screen). Cells: RAW264.7 G9 macrophages from mouse bearing reporters for p65 (GFP) and the Tnf promoter (mCherry). Knock-down reagent: siRNA pool against mouse genes, 100 nM. Time to read-out: 16 h of LPS stimulation, after 2 days of siRNA transfection. Challenge: bacterial lipopolysaccharide (Salmonella minnesota R595), 10 ng/ml. Measured: 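Nuclear mCherry signal of the Tnf promoter reporter measured by imaging after background removal, scaled to each plate median and turned into robust z-scores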. Direction: Tnf reporter robust z-score: higher = stronger Tnf promoter reporter signal after LPS. Hit rule: 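a well counts as active at a score of -1.3 or below (Tlr4 knock-down control median) or above 3 (raised signal); controls and wells holding fewer than 50 cells are excluded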. Meaning of the calls: active = Tnf reporter clearly lowered or raised; inactive = no clear change in Tnf reporter.
Here is a random part of about 17,000 reagents. Of all reagents, about 1,110 (6.6%) were called active. 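Active means lowered or raised reporter signal; replicate intensities are raw and not normalised per plate.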 Further read-outs or replicates are left out here.

The first 7 entries, to show the layout:
Tnf reporter robust z-score	fewer than 50 cells in well	Call	gene knocked down
0.97	enough cells in well	inactive	Pcnx4
1.04	enough cells in well	inactive	Ccng2
0.11	enough cells in well	inactive	Or52ae9
	fewer than 50 cells per well; well left out of calls	inactive	Nat8f4
1.68	enough cells in well	inactive	Mast1
-0.85	enough cells in well	inactive	Or5b21
2.55	enough cells in well	inactive	Or4a72

Results, repeating the preview:
Tnf reporter robust z-score	fewer than 50 cells in well	Call	gene knocked down
0.97	enough cells in well	inactive	Pcnx4
1.04	enough cells in well	inactive	Ccng2
0.11	enough cells in well	inactive	Or52ae9
	fewer than 50 cells per well; well left out of calls	inactive	Nat8f4
1.68	enough cells in well	inactive	Mast1
-0.85	enough cells in well	inactive	Or5b21
2.55	enough cells in well	inactive	Or4a72
-1.16	enough cells in well	inactive	2210409E12Rik
-1.67	enough cells in well	active	Pdzrn3
0.63	enough cells in well	inactive	Zfat
2.03	enough cells in well	inactive	Aatf
-0.6	enough cells in well	inactive	Ucp1
0.62	enough cells in well	inactive	Fbxw8
0.58	enough cells in well	inactive	Me3
1.06	enough cells in well	inactive	Slc40a1
	fewer than 50 cells per well; well left out of calls	inactive	Sap130
2.21	enough cells in well	inactive	Capn12
2.1	enough cells in well	inactive	C1qa
1.28	enough cells in well	inactive	Phaf1
0.79	enough cells in well	inactive	Cdc37l1
1.48	enough cells in well	inactive	Zfp715
-1.18	enough cells in well	inactive	Sbno2
0.75	enough cells in well	inactive	Slc27a4
-0.57	enough cells in well	inactive	Parm1
-0.73	enough cells in well	inactive	Hps4
0.43	enough cells in well	inactive	F11
-1.54	enough cells in well	active	Sacm1l
1.13	enough cells in well	inactive	Dedd2
	fewer than 50 cells per well; well left out of calls	inactive	Acyp2
0.2	enough cells in well	inactive	Zc2hc1c
1.91	enough cells in well	inactive	Eno3
-0.79	enough cells in well	inactive	Gpr141
-0.16	enough cells in well	inactive	Egr3
-0.23	enough cells in well	inactive	Rras2
	fewer than 50 cells per well; well left out of calls	inactive	Bhmt2
-0.29	enough cells in well	inactive	Atp6v0b
0.76	enough cells in well	inactive	Rabep1
	fewer than 50 cells per well; well left out of calls	inactive	Sh3bgrl3
-0.51	enough cells in well	inactive	Slc16a13
-0.64	enough cells in well	inactive	Ctsr
-0.09	enough cells in well	inactive	Evi2b
-0.08	enough cells in well	inactive	B4galt4
1.29	enough cells in well	inactive	Vps29
-0.3	enough cells in well	inactive	Ulk1
-0.38	enough cells in well	inactive	Capn9
0.72	enough cells in well	inactive	Hdac10
0.42	enough cells in well	inactive	Fpr-rs6
0.93	enough cells in well	inactive	Fscn3
-0.23	enough cells in well	inactive	Sez6
-0.83	enough cells in well	inactive	Nudt14
0.47	enough cells in well	inactive	Aup1
0.24	enough cells in well	inactive	Mesp2
-0.14	enough cells in well	inactive	Pstpip1
-0.38	enough cells in well	inactive	Ndufs4
0.54	enough cells in well	inactive	C1qtnf5
	fewer than 50 cells per well; well left out of calls	inactive	Slc26a11
-1.42	enough cells in well	active	Aven
-0.69	enough cells in well	inactive	Wnt5a
